Test results from PMC8278074.
Substitutions are numbered along the chain they refer to. No constants are given. Whether binding was seen depends on the method and setting. Binding seen in cells or lysates may run through a third protein. Some binding calls cover weakened binding; strength is not graded here. For part of these data: Sequences can lack the tags named with a protein.

Protein sequences, listed by entry. Tags and fused reporters are not part of them.
UniProt P46937: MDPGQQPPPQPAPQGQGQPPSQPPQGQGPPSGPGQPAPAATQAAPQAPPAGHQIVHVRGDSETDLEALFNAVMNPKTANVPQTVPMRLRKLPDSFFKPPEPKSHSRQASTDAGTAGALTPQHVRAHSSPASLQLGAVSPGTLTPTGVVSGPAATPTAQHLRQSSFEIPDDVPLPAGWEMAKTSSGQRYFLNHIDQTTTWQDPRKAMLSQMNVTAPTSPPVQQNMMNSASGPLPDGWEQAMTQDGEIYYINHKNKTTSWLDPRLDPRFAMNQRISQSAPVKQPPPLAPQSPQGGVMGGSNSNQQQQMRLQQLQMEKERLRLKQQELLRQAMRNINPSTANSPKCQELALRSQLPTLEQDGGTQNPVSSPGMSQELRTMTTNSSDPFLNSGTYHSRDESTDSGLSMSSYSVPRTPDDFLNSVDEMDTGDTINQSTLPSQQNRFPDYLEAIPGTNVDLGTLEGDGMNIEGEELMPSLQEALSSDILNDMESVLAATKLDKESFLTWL

Columns and labels:
[1] = target: T1, 3 × Flag‐TAK1 (TGF‐β‐activated kinase 1) (UniProt O43318); test: co-IP; lysate (weak lysis buffer) of MKN45-derived gastric cancer spheroids; antibody 5 h at 4°C, protein A/G plus agarose, Western blot; methods name a 3×Flag antibody, the legend anti-TAK1 antibodies
T1 sequence: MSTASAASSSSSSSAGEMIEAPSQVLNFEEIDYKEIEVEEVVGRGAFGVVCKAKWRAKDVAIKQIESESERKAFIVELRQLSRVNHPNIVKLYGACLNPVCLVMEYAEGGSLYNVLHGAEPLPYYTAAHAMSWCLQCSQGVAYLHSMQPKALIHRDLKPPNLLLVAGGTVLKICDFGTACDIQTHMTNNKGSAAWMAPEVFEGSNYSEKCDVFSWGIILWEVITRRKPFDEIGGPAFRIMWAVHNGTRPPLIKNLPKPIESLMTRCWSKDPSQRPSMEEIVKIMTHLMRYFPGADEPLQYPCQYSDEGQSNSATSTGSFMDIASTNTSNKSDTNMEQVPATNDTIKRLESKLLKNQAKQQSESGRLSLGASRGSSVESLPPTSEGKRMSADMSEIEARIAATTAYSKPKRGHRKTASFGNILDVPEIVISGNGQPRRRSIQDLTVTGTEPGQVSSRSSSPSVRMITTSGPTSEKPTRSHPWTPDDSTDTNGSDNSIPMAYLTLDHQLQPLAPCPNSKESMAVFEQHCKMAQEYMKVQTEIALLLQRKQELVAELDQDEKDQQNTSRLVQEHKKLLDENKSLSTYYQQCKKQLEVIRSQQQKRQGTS

TAK1^E29A = target: T2, TAK1^E29A (UniProt O43318); test: as above
T2 sequence: T1 sequence with E29A

[2] = target: T1, 3 × Flag‐TAK1 (TGF‐β‐activated kinase 1); test: condition: only cells treated with the TAK1 kinase inhibitor 5Z-7-oxozeaenol; co-IP; as a2, cells treated with the TAK1 kinase inhibitor 5Z-7-oxozeaenol

- binding [1]: binds
- binding (TAK1^E29A): no binding
- binding [2]: no binding
Substance: yes‐associated protein (YAP) (from UniProt P46937 1-504)
